Substitutions are numbered along the chain they refer to. No constants are given. Whether binding was seen depends on the method and setting. In cells and extracts the contact can be indirect. Some entries that bind do so weakly or less than the wild type.
How the values were obtained:
[1] = biological target: T1, Endogenous PPM1A (protein phosphatase Mg2+/Mn2+-dependent 1A) in 3T3-L1 adipocytes (mouse (endogenous in 3T3-L1)) (UniProt P49443); test: co-IP; endogenous PPM1A and endogenous PPARγ each immunoprecipitated from 3T3-L1 adipocytes, the other detected by Western blotting
T1 sequence: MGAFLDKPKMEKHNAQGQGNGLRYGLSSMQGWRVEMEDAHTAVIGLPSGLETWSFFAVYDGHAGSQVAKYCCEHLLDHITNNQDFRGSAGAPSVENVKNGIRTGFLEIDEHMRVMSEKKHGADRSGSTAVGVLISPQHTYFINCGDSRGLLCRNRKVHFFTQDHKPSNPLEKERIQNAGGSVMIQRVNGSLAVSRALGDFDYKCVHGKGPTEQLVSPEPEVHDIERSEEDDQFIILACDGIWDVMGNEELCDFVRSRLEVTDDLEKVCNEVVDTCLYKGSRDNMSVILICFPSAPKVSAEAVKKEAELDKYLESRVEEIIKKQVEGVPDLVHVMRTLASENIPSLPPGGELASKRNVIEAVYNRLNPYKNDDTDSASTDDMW

[2] = biological target: Endogenous PPARγ (peroxisome proliferator-activated receptor gamma) in 3T3-L1 adipocytes (mouse (endogenous in 3T3-L1)) (UniProt P37238); test: as above
[3] = biological target: FLAG epitope-tagged wild-type PPARγ expressed in HEK-293 cells (UniProt P37238); test: co-IP; HEK-293 cells co-transfected with PPARγ and PPM1A, with or without PMA (500 nM, 30 min); total cell lysates incubated with FLAG M2 agarose at 4 °C; Western blotting
[4] = biological target: FLAG epitope-tagged PPARγ S273A expressed in HEK-293 cells (UniProt P37238); test: as above

## Endogenous PPARγ (peroxisome proliferator-activated receptor gamma) in 3T3-L1 adipocytes (from UniProt P37238 1-505)
[1]
  binding: binds

B1: Endogenous PPM1A (protein phosphatase Mg2+/Mn2+-dependent 1A) in 3T3-L1 adipocytes (enzyme, UniProt P49443 1-382)
chain: T1 sequence
[2]
  binding: binds

B2: WT human PPM1A expressed in HEK-293 cells (enzyme, UniProt P35813 1-382)
chain: T1 sequence with T52S, R86K, S293N, A299P, S314C, V324G, A376T
[3]
  binding: binds
[4]
  binding: binds
